Record: PubChem BioAssay AID493246 (Drosophila RNAi Screening Center, 2011)
The screen tested about 21,000 reagents; shown is a random part of those with a known target gene and a result. Over the whole deposit, 429 (2%) got an active call. 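Values are raw and not normalised between plates; calls rest on per-plate z-scores that were not deposited.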 A plus sign joins genes that one reagent is predicted to hit. The record does not give: the amount of reagent, the time to read-out.

Purpose: 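Identify essential fly genes by loss of cell viability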 (primary screen)
System: Drosophila Kc and S2R+ cells
Reagent: long dsRNA against Drosophila genes
Read-out: 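Cell number per well after knock-down, printed as raw plate values; calls were based on per-plate z-scores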
Scale: Kc cell number and S2R+ cell number: higher = more cells remaining
Active means: 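Counted as a hit if cell number falls by a z-score of at least 3 within its plate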

no.	gene knocked down	DRSC id	Kc cell number, rep 1	Kc cell number, rep 2	S2R+ cell number, rep 1	S2R+ cell number, rep 2	activity call
1	Dna2 (DNA replication helicase/nuclease 2)	DRSC18254	5.79e5		8.85e5		inactive
2	pico	DRSC19430	1.50e6	1.50e6	9.96e5	1.17e6	inactive
3	lin (lines)	DRSC07644	1.72e6	1.71e6	1.40e6	1.51e6	inactive
4	CG17049 (retired record)	DRSC06650	1.49e6	1.54e6	1.16e6	1.25e6	inactive
5	mud (mushroom body defect)	DRSC19019	1.47e6	1.49e6	1.11e6	1.24e6	inactive
6	CG6650	DRSC10685	1.67e6	1.72e6	1.40e6	1.38e6	inactive
7	Cbp80 (cap binding protein 80)	DRSC18450	7.55e5		6.94e5		inactive
8	Osi19 (Osiris 19)	DRSC12569	1.62e6	1.78e6	1.21e6	1.33e6	inactive
9	Leash	DRSC15617	1.58e6	1.57e6	1.32e6	1.39e6	inactive
10	CG31176	DRSC15038	1.30e6	1.36e6	1.02e6	1.06e6	inactive
11	CG31176	DRSC16021	1.36e6	1.34e6	1.00e6	1.07e6	inactive
12	CG5773	DRSC06955	1.47e6	1.51e6	1.09e6	1.21e6	inactive
13	ssp2 (short spindle 2)	DRSC11052	1.54e6	1.66e6	1.17e6	1.23e6	inactive
14	CG7182	DRSC10780	1.33e6	1.42e6	1.34e6	1.08e6	inactive
15	Gmap (Golgi microtubule-associated protein)	DRSC19988	6.44e5		9.02e5		inactive
16	Gmap (Golgi microtubule-associated protein)	DRSC20057	1.51e6	1.52e6	1.09e6	1.21e6	inactive
17	CG13390	DRSC02261	1.44e6	1.59e6	1.22e6	1.34e6	inactive
18	syd (sunday driver)	DRSC10963	1.42e6	1.45e6	1.31e6	1.29e6	inactive
19	CG13634	DRSC14635	1.50e6	1.48e6	9.46e5	1.10e6	inactive
20	BHD (Birt-Hogg-Dube)	DRSC11017	1.46e6	1.54e6	1.36e6	1.21e6	inactive
21	lush	DRSC11364	1.30e6	1.31e6	1.27e6	1.39e6	inactive
22	icln	DRSC07630	1.58e6	1.62e6	1.12e6	1.29e6	inactive
23	CG31213	DRSC14312	1.35e6	1.40e6	1.04e6	1.08e6	inactive
24	CG31213	DRSC15647	1.36e6	1.41e6	9.97e5	8.33e5	inactive
25	ebd2 (earthbound 2)	DRSC11682	1.43e6	1.58e6	1.23e6	1.30e6	inactive
26	CG9702	DRSC16540	1.53e6	1.49e6	9.73e5	1.12e6	inactive
27	CG12506	DRSC00347	1.55e6	1.60e6	1.11e6	1.20e6	inactive
28	Tti1 (Telo2 interacting protein 1)	DRSC15163	1.40e6	1.42e6	1.30e6	1.39e6	inactive
29	Cpr78Cc (Cuticular protein 78Cc)	DRSC11846	1.52e6	1.58e6	1.24e6	1.42e6	inactive
30	PIG-F (Phosphatidylinositol glycan anchor biosynthesis class F)	DRSC11069	1.35e6	1.33e6	1.32e6	1.44e6	inactive
31	CG5439	DRSC02861	1.38e6	1.45e6	1.25e6	1.26e6	inactive
32	Nepl18 (Neprilysin-like 18)	DRSC14879	1.52e6	1.55e6	1.09e6	1.17e6	inactive
33	OtopLa (Otopetrin-like a)	DRSC17787	1.31e6	1.39e6	9.73e5	1.07e6	inactive
34	OtopLa (Otopetrin-like a)	DRSC18133	1.61e6	1.58e6	1.03e6	1.18e6	inactive
35	CG17167	DRSC20902	1.73e6	1.76e6	1.15e6	1.33e6	inactive
36	CG17167	DRSC20903	1.80e6	1.78e6	1.15e6	1.35e6	inactive
37	RhoU	DRSC17635	1.25e6	1.63e6	1.08e6	1.14e6	inactive
38	RhoU	DRSC17803	1.62e6	1.52e6	1.13e6	1.17e6	inactive
39	RhoU	DRSC17804	1.41e6	1.50e6	1.09e6	1.21e6	inactive
40	Eogt (EGF-domain O-GlcNAc transferase)	DRSC00727	1.34e6	1.43e6	1.03e6	9.79e5	inactive
41	Tango1 (Transport and Golgi organization 1)	DRSC02127	1.14e6	1.35e6	5.14e5	5.41e5	inactive
42	Smyd4-3 (SET and MYND domain containing, class 4, member 3)	DRSC07041	1.34e6	1.43e6	1.09e6	1.16e6	inactive
43	Cht2 (Chitinase 2)	DRSC08650	1.42e6	1.47e6	1.15e6	1.23e6	inactive
44	Pngl (PNGase-like)	DRSC04914	1.57e6	1.67e6	1.37e6	1.51e6	inactive
45	CG4553	DRSC15595	1.65e6	1.91e6	1.07e6	1.12e6	inactive
46	onecut	DRSC17175	1.59e6	1.67e6	1.06e6	1.12e6	inactive
47	CG11664	DRSC18650	1.52e6	1.47e6	1.04e6	1.12e6	inactive
48	Agxt (Alanine-glyoxylate aminotransferase)	DRSC18718	4.97e5		9.05e5		inactive
49	MESR4 (Misexpression suppressor of ras 4)	DRSC06901	1.57e6	1.61e6	9.34e5	1.04e6	inactive
50	CG14628	DRSC18626	1.57e6	1.56e6	1.05e6	1.24e6	inactive
51	morgue (modifier of rpr and grim, ubiquitously expressed)	DRSC00264	1.24e6	1.26e6	8.84e5	9.07e5	inactive
52	Hex-C (Hexokinase C)	DRSC07079	1.52e6	1.54e6	1.06e6	1.27e6	inactive
53	Pcyt2 (Phosphocholine cytidylyltransferase 2)	DRSC08531	1.38e6	1.42e6	1.11e6	1.13e6	inactive
54	CG32533	DRSC19443	1.79e6	1.78e6	1.12e6	1.20e6	inactive
55	CG32533	DRSC19553	1.47e6	1.48e6	1.05e6	1.11e6	inactive
56	lt (light)	DRSC03759	1.41e6	1.51e6	1.23e6	3.26e5	inactive
57	aus (argus)	DRSC13471	1.51e6	1.54e6	1.05e6	1.18e6	inactive
58	aus (argus)	DRSC13473	1.40e6	1.40e6	1.06e6	1.12e6	inactive
59	aus (argus)	DRSC15157	1.65e6	1.75e6	1.32e6	1.37e6	inactive
60	TwdlB (TweedleB)	DRSC16050	1.49e6	1.57e6	9.48e5	1.11e6	inactive
61	ScsbetaA (Succinyl-coenzyme A synthetase beta subunit, ADP-forming)	DRSC14446	1.41e6	1.48e6	1.25e6	1.29e6	inactive
62	Rpn7 (Regulatory particle non-ATPase 7)	DRSC16841	9.20e5	1.06e6	7.12e5	7.88e5	active
63	sstn (stepping stone)	DRSC10753	1.67e6	1.73e6	1.27e6	1.38e6	inactive
64	CG33969	DRSC11777	1.39e6	1.48e6	1.27e6	1.32e6	inactive
65	Lcp65Aa	DRSC11209	1.37e6	1.29e6	1.16e6	1.21e6	inactive
66	CG10834	DRSC03693	1.67e6	1.69e6	1.21e6	2.97e5	inactive
67	Met75Ca + Met75Cb	DRSC09549	1.72e6	1.81e6	1.19e6	1.38e6	inactive
68	Met75Ca + Met75Cb	DRSC11221	1.33e6	1.56e6	1.41e6	1.47e6	inactive
69	hubl (hug-bell)	DRSC06825	1.43e6	1.56e6	1.30e6	1.37e6	inactive
70	CG7702	DRSC16293	1.50e6	1.60e6	1.11e6	1.24e6	inactive
71	CG31729	DRSC02524	1.34e6	1.46e6	1.21e6	1.29e6	inactive
72	CG31729	DRSC02946	1.53e6	1.66e6	1.22e6	1.43e6	inactive
73	CG18493	DRSC15334	1.29e6	1.27e6	1.11e6	1.22e6	inactive
74	Or33a (Odorant receptor 33a)	DRSC03386	1.57e6	1.70e6	1.19e6	1.38e6	inactive
75	Poc1 (Proteome of centrioles 1)	DRSC09713	1.29e6	1.32e6	1.35e6	9.92e5	inactive

Entries listed so far whose target name begins with E or e (2):
gene knocked down	DRSC id	Kc cell number, rep 1	Kc cell number, rep 2	S2R+ cell number, rep 1	S2R+ cell number, rep 2	activity call
ebd2 (earthbound 2)	DRSC11682	1.43e6	1.58e6	1.23e6	1.30e6	inactive
Eogt (EGF-domain O-GlcNAc transferase)	DRSC00727	1.34e6	1.43e6	1.03e6	9.79e5	inactive
